Publication PMC7325893
No constants are given. Whether binding was seen depends on the method and setting. In cells and extracts the contact can be indirect. Some results given as binding are weak or reduced against the parent protein; the word gives no strength.

Target: T1, cellugyrin (synaptogyrin-2) (human (endogenous in THP-1)) (UniProt O43760)
T1 sequence: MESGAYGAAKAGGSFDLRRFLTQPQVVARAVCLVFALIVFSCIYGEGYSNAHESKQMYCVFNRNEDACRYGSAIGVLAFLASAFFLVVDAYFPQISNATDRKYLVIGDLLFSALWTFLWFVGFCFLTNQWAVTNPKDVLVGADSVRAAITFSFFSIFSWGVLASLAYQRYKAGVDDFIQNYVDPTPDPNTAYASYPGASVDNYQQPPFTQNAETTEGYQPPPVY
Experiment: co-IP

B1: Derlin-2 (protein, UniProt Q9GZP9 1-239)
chain: MAYQSLRLEYLQIPPVSRAYTTACVLTTAAVQLELITPFQLYFNPELIFKHFQIWRLITNFLFFGPVGFNFLFNMIFLYRYCRMLEEGSFRGRTADFVFMFLFGGFLMTLFGLFVSLVFLGQAFTIMLVYVWSRRNPYVRMNFFGLLNFQAPFLPWVLMGFSLLLGNSIIVDLLGIAVGHIYFFLEDVFPNQPGGIRILKTPSILKAIFDTPDEDPNYNPLPEERPGGFAWGEGQRLGG
In the case of B1, the binding is reported as “binds”.
